According to patent US20150111896A1, “HEMATOPOIETIC PROTECTION AGAINST CHEMOTHERAPEUTIC COMPOUNDS USING SELECTIVE CYCLIN-DEPENDENT KINASE 4/6 INHIBITORS” (The University of North Carolina at Chapel Hill, priority 2008, published 2015):
Some of these results come from one statement about several compounds together.

How the values were obtained:
[1] = test system: telomerized human diploid fibroblast (tHDF) cells (HS68); assay: Cell cycle analysis (BrdU and propidium iodide, flow cytometry); format: cell-based; conditions: HS68 (CDK4/6-dependent), 24 hours treatment
Description: (§1) Cells were cultured in DMEM+10% FBS.
(§2) Cell cycle analysis: Cell cycle analysis was performed using BrdU and propidium iodide (both from BD Biosciences Pharmigen, San Jose, Calif., United States of America) following the manufacturer's protocol. Cells were treated for 24 hours with a test compound at a desired dose prior to 15 minutes BrdU pulse, cell harvesting, fixation, staining, and analysis by flow cytometry.
(§3) Histograms of dose-response curves of PD332991 and 2BrIC in HS68, WM2664 and A2058 cells were analyzed using Mod-Fit™ software from Verity Software House (Topsham, Me., United States of America).

[2] = test system: human melanoma cells lacking INK4a/ARF (WM2664); assay: as above; format: cell-based; conditions: WM2664 (CDK4/6-dependent), 24 hours treatment
Description: as §1, §2, §3

## CCC(CO)Nc1nc(NCc2ccccc2)c2ncn(C(C)C)c2n1 (centres unmarked) [Roscovitine]
[1]
  cell cycle effect: G2/M block, intra-S arrest, or cell death (sub-G0)
[2]
  cell cycle effect: G2/M block, intra-S arrest, or cell death (sub-G0)
